Results of single-concentration screens

Amino acid sequences for entries named in this document (tags omitted). Residues count along the entry.
UniProt Q8IDJ8, 1-583: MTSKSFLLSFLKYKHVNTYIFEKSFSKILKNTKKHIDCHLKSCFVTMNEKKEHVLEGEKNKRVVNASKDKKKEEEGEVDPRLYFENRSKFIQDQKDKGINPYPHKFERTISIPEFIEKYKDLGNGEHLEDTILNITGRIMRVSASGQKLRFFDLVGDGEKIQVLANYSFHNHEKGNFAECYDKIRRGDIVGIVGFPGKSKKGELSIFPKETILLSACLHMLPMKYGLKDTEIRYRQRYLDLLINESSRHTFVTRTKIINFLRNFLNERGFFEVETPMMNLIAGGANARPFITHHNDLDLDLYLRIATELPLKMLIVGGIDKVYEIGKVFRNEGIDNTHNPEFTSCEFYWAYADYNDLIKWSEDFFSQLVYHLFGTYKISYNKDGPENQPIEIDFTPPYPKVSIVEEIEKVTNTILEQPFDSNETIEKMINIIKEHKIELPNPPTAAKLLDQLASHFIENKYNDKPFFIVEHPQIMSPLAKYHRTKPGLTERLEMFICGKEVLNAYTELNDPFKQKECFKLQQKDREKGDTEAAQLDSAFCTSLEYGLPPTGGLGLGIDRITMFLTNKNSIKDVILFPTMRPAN
UniProt A4I591, 1-473: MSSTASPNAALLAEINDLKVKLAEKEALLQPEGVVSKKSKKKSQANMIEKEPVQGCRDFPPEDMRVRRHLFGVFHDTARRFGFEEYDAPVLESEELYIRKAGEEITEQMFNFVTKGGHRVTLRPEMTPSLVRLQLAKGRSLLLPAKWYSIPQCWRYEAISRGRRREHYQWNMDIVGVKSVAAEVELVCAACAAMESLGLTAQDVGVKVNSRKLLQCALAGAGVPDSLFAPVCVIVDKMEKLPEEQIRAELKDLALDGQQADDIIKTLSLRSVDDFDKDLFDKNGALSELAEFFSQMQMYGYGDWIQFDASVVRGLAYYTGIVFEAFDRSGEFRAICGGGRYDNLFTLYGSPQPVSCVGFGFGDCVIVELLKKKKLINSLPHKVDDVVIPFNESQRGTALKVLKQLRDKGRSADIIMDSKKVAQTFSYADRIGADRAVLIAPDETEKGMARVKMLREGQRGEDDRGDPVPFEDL
UniProt Q4DA54, 1-478: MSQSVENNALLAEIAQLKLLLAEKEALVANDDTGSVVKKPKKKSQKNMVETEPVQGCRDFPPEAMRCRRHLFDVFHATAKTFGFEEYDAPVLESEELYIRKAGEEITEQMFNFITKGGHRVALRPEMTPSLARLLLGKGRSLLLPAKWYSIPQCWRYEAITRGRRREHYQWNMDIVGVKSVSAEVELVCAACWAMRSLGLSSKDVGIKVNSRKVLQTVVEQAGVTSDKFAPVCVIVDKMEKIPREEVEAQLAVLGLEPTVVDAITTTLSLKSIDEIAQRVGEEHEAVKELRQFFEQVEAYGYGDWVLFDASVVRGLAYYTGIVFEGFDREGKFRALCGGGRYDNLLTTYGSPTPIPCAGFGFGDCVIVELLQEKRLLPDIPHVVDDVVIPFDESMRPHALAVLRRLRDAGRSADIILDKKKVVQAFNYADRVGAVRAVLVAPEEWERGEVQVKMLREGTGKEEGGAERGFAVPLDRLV
UniProt P9WPC5, whole entry: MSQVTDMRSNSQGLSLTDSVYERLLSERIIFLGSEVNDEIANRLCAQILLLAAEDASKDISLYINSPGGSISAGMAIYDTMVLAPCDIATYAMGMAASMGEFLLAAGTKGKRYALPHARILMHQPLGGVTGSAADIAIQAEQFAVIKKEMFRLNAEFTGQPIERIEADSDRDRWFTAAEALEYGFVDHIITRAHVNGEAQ
UniProt P9WPC3, whole entry partner: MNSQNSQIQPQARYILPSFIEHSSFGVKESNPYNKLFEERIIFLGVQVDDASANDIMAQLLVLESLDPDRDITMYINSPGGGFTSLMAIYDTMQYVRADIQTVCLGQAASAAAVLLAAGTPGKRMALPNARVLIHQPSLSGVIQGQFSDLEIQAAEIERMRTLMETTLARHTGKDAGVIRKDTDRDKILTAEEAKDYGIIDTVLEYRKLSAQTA

Data taken from ChEMBL document CHEMBL3988442, “University of Dundee, Small-Polar-MMV Screening Library” (2021).

Values are the deposited “Percent Effect”, in %. The controls that fix the scale are not given in the record; negative values are as filed. This is an unselected part of the compounds tested. Two or more numbers in one place are separate tests of the same structure; such repeats can differ widely. A dash means the value is not listed here; it may have been measured.

A: 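Lysine-tRNA ligase, Plasmodium falciparum 3D7 (UniProt Q8IDJ8). Enzyme assay of the cytosolic lysyl-tRNA synthetase in 384-well plates, read by luminescence. Concentration: 30 µM. Higher reads as stronger inhibition, judged from the few compounds that gave an IC50. Size under these conditions: about 69,000 compounds, about 49 of them at 50% or above in at least one test.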
B: 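Enzyme assay of histidyl-tRNA synthetase; the read-out is not stated. Target: Histidine-tRNA ligase, Leishmania infantum (UniProt A4I591). Concentration: 30 µM. The record gives no direction; compounds that gave an IC50 in retests scored well above the rest, so higher reads as stronger inhibition. The assay is labelled LdHisRS but filed under L. infantum. Of about 69,000 compounds tested this way, about 410 (0.6%) reached 50% or more in at least one test.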
C: 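Enzyme assay of histidyl-tRNA synthetase; the read-out is not stated. Target: Histidine-tRNA ligase, Trypanosoma cruzi CL Brener (UniProt Q4DA54). Concentration: 30 µM. Higher reads as stronger inhibition (inferred: compounds with an IC50 in retests scored well above the rest). Size under these conditions: about 69,000 compounds, about 31 of them at 50% or above in at least one test.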
D: 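Cell assay of Leishmania donovani living inside macrophages; the read-out is not stated. Concentration: 30 µM. Direction is inferred from retests: higher values go with stronger inhibition. Of about 69,000 compounds tested this way, about 1,000 (1.5%) reached 50% or more in at least one test.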
E: 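Protease assay of ClpP1P2, read by the AMC dye that it sets free. Target: ClpP1P2, Mycobacterium tuberculosis (UniProt P9WPC5 and UniProt P9WPC3). Tested at 50 µM. Direction is inferred from only a few compounds that gave an IC50; most scored high, so higher reads as stronger inhibition. Most other retested compounds had strongly negative values. Of about 69,000 compounds tested this way, about 10 (0.015%) reached 50% or more in at least one test.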

compound,A,B,C,D,E
COc1ccccc1C(C)(C)NC(=O)c1ccc(F)c(NC(C)=O)c1,5.774,9.333,4.762,-6.216,-7.449
CNC(=O)CCC(=O)N1CCOC(c2ccc3cc(OC)ccc3c2)C1 (configuration not stated),-1.516,9.434,-0.8333,13.04,-22.13
[H][C@@]12CN(C(=O)c3ccc(C)nc3)C[C@]1([H])OCCN2C(C)C,-,-,-,25.44,-
CN(C)C(=O)CCC1CCCN(Cc2ccc(-c3cccnc3)cc2)C1 (configuration not stated),7.161,0,3.804,-0.3573,-2.973
O=C(Nc1ccc(Br)cc1F)c1cc(CN2CCOCC2)on1,8.285,23.68,6.098,9.202 & 9.163,-3.981
COCCn1ccnc1-c1[nH]cnc1C,5.713,20.34,4.39,29.38,-17.6
O=C(Nc1ccccc1)C1CCN(C(=O)COc2ccccc2F)CC1,1.784,27.78,-3.061,-16.01,3.369
CC(C)N1CCO[C@H]2CN(C(=O)c3ccncc3)C[C@H]21,6.649,11.93,4.202,-,3.82
CO[C@@H]1CCN(S(=O)(=O)c2cn(C)cn2)[C@H]1Cc1ccncc1.O=C(O)C(F)(F)F,-,-,-,15.96,-
Cc1cnn(CC2CN(CC(=O)N(C)Cc3cnn(C)c3)CCO2)c1 (configuration not stated),-0.6908,8.621,6.78,18.5,-8
NC(=O)CN(CC(=O)NCCc1c(F)cccc1F)C1CCCC1,4.668,11.57,-3.061,9.761,-8.197
CNS(=O)(=O)CC1CCCN1C(=O)c1ccc(C)c(C)c1 (configuration not stated),-0.3057,11.67,6.494,-9.061,0.1911
Cc1cc(C)nc(N2CCC(Cn3cc(C(=O)N(C)C)cn3)CC2)n1,-1.451,2.899,3.788,-10.28,-24.9
NS(=O)(=O)c1cnn(-c2ccc(NC(=O)C3CCCCC3)cn2)c1,0.8652,13.49,9.412,6.166,-6.238
CCOCCN(C)C(c1cccnc1)c1ccc(F)cc1F (configuration not stated),-0.1796,12.9,3.061,13.07,5.91
[H][C@@]12CCCO[C@]1([H])[C@H](NC(=O)N(C)C)CN2S(C)(=O)=O,-,-,-,13.33 & -9.765,-
CCN(CC1CCOC1)C(=O)c1cccnc1N1CCOCC1 (configuration not stated),1.245,16.67,-0.7576,1.917,0.6561
Cc1ccc(CN2CC3(CCN(C(=O)Cc4ccc(Cl)cc4)C3)C2)o1,3.774,13.89,3.738,0.07264,-20.33
Cn1cc(N2CC3(CCN(CC4CCOCC4)CC3)OCC2=O)cn1.O=C(O)C(F)(F)F,-,-,-,14.88,-
CCOCCn1nc(C)cc1C(=O)N1CCC2(CC1)[C@H](O)C[C@@H]2OCC,-1.238,13.6,3.518,16.81,5.245
COC(=O)CCNC(=O)c1cccc(C(=O)N(C)c2ccccc2)c1,0.1169,7.527,8.929,-36.65,13.25
CC(C)(NCC(=O)NCC(F)(F)F)c1ccc2c(c1)OCCO2,3.709,28.57,1.504,30.64,9.278
Cc1nc2c(c(=O)n1C)CCN(Cc1cc3ccccc3[nH]1)CC2,8.455,17.65,1.587,-16.56,-9.947
NC(=O)CN1CCOCC(Cc2ccccc2)C1 (configuration not stated),1.149,6,4.494,21.43,-6.475
CCCN1CCCn2c(nc(CNC(=O)N3CCCC3)cc2=O)C1,1.511,19.66,3.743,-,4.808
Cc1cc(C(=O)N2CCN(C)CC2)nn1CC(=O)NCc1ccccn1.Cl,-,-,-,-3.116,-
CCc1cc(N2CCC(NC3CN4CCC3CC4)CC2)nc(N(C)C)n1 (configuration not stated),1.877,16.67,2.532,-24.75,1.199
COc1ccc(CN2CCCCC2CNC(=O)OC(C)(C)C)cc1F (configuration not stated),5.191,3.774,-6.78,16.23,0.8158
Cc1ccc(CN2CCC3(CC(C(=O)NC4CCC4)=NO3)C2)o1 (configuration not stated),8.338,9.091,4.132,32.55,7.161
CCOC(=O)[C@@H]1[C@@H](O)C(=O)N(C)C12CCN(C(=O)OC)CC2,1.696,16.49,2.312,20.63,-1.311

Once more, the final 2:

| compound | A | B | C | D | E |
|---|---|---|---|---|---|
| `Cc1ccc(CN2CCC3(CC(C(=O)NC4CCC4)=NO3)C2)o1` (configuration not stated) | 8.338 | 9.091 | 4.132 | 32.55 | 7.161 |
| `CCOC(=O)[C@@H]1[C@@H](O)C(=O)N(C)C12CCN(C(=O)OC)CC2` | 1.696 | 16.49 | 2.312 | 20.63 | -1.311 |